{
  "sequences": {"note": "Chains of the proteins cited; added tags and fusions are not shown. Lines headed by an entry give the natural chain unless they say otherwise; changes in a name come on top.", "UniProt P9WIV9": "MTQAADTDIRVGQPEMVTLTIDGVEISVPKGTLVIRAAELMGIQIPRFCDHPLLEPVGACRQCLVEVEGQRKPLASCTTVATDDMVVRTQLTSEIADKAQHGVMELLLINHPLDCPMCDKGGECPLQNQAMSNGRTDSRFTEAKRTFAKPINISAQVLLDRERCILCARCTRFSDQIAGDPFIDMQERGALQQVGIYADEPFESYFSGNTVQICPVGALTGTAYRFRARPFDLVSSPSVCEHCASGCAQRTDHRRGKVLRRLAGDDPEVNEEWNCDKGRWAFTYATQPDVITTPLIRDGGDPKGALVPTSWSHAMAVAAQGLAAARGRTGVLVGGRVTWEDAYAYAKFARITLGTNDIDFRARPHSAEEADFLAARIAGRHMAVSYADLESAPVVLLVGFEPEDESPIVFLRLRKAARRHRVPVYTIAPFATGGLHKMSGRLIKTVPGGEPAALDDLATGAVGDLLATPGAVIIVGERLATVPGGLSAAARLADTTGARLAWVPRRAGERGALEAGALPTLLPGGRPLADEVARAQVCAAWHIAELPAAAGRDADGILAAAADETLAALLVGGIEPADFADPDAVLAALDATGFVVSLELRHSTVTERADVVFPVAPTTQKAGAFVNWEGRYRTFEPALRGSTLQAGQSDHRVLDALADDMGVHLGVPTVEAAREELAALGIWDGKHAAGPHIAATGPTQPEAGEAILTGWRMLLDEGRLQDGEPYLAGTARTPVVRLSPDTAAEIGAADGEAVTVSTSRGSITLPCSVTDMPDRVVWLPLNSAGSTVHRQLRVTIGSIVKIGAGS", "UniProt P9WIW9": "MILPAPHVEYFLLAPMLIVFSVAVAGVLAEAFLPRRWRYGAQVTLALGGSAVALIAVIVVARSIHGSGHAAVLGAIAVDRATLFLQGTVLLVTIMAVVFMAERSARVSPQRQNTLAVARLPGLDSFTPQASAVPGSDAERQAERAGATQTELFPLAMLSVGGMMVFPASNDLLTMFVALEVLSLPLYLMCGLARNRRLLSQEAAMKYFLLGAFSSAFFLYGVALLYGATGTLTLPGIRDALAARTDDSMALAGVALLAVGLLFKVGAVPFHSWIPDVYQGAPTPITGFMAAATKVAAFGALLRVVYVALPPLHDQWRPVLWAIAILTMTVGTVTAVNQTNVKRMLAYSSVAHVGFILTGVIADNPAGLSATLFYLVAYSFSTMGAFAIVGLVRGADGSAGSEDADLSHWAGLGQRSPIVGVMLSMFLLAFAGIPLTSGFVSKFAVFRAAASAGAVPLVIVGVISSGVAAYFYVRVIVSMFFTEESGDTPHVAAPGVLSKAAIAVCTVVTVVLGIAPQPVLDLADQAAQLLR"},
  "source": "paper PMC9274095",
  "biological_target": "T1, Rv3143 fused with enhanced green fluorescent protein (eGFP) (M. tuberculosis) (UniProt P9WGL7)",
  "T1 sequence": "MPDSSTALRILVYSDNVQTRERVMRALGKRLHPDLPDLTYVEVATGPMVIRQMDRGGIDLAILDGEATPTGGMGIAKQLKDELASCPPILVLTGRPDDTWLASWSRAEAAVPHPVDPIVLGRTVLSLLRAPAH",
  "test": "affinity purification with mass spectrometry",
  "note": "Results are given in words; binding and its absence hold for the method and conditions named. In cells and extracts the contact can be indirect. These calls come from enrichment with a bait or labelling near it, and not all partners need be listed. Where a sequence is shown, tags or fusion partners need not be part of it.",
  "data": [
    {"substance": "NuoG (from UniProt P9WIV9)", "values": [
      {"measurement": "binding", "value": "binds"}
    ]},
    {"substance": "NuoN (from UniProt P9WIW9)", "values": [
      {"measurement": "binding", "value": "binds"}
    ]}
  ]
}
